Out of some 320,000 compounds screened, about 22,000 (6.9%) were called active. Inconclusive results, whose numbers are uncertain, are shown with a selection of clear calls. The call rests on the fitted dose curve; in most records, active means well fitted inhibition curve with a large enough effect; inconclusive means small, poorly fitted or top-dose-only effect, or another doubt; inactive means no such curve, though single readings can be large or run the other way. Potencies beside an inconclusive call are fits to weak or partial responses and may not hold up.
Assay: Primary qHTS for delayed death inhibitors of the malarial parasite plastid, 96 hour incubation
Conditions: P. falciparum luciferase reporter growth; series mostly up to 28.7 µM; activity change, negative = inhibition: at the top concentration
How it was run: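 Readout is luminescence from an integrated firefly luciferase in P. falciparum. Red cells, 2% hematocrit and 0.05% parasitemia final, were cultured with compound through two parasite generations (96 hours) at 37 C, 5% CO2.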
On the % scale 0 is the no-effect control and ±100 the full control effect; potency means the concentration at half of the fitted maximal effect.

Row | Structure (SMILES) | Potency | activity change, negative = inhibition
1 | O=C(c1ccc(C(F)(F)F)cc1)C1CCCN(Cc2ccc(CO)o2)C1 (centres undefined) | inconclusive: 18.5 µM [inhibitor, single point] | –
2 | O=C(NCCSc1ccc(Br)cc1)c1ccc2nc[nH]c2c1 | – | inactive: -11.8%
3 | CSc1ccccc1C(=O)Nc1ccccc1C(=O)N1CCCC1 | inconclusive: 18.5 µM [inhibitor, single point] | –
4 | COc1ccc(-n2ncc(Cl)c(Cl)c2=O)cc1 | – | inactive: 33.9%
5 | O=C(NCc1ccccc1)C1=C[C@@H](c2ccc(Br)cc2)C[C@@H](OCCCCO)O1 | inconclusive: 9.28 µM [inhibitor, partial curve, poor fit] | –
6 | Cc1ccc(C)c(NC2CCCCC2NS(=O)(=O)c2ccccc2)c1 (centres undefined) | inconclusive: 10.4 µM [inhibitor, single point] | –
7 | Cc1ccc(SCC(=O)NCCSC(C)(C)C)cc1 | – | inactive: 39.3%
8 | CC(C)Cn1nc(NC(=O)c2cccs2)c2cc3ccccc3nc21 | inconclusive: 18.5 µM [inhibitor, single point] | –
9 | COc1ccc(S(=O)(=O)Nc2ccc(-n3cnnn3)cc2)cc1[N+](=O)[O-] | inconclusive: 18.5 µM [inhibitor, single point] | –
10 | C=CCNc1nc(C(=O)OCC(=O)NCc2cccc(Cl)c2)cs1 | – | inactive: -1.54%
11 | CS(=O)(=O)c1cccc(C(=O)Nc2ccc(-c3nc4ccccc4[nH]3)cc2)c1 | inconclusive: 1.47 µM [inhibitor, partial curve, poor fit] | –
12 | Cn1c(=O)[nH]c(=O)c2c1nc(Br)n2C/C=N/Nc1ccccc1 | – | inactive: -4.18%
13 | COc1ccc([N+](=O)[O-])cc1NC(=O)COC(C)=O | – | inactive: 36.2%
14 | Cc1nnc(SC(C)C(=O)NCC2CCCO2)n1-c1ccccc1 (centres undefined) | – | inactive: -12.2%
15 | CCN(c1ccccc1)S(=O)(=O)c1ccc(C(=O)Nc2nnc(CSC)o2)cc1 | inconclusive: 7.38 µM [inhibitor, partial curve, poor fit] | –
16 | Cc1ccc(CCNC(=O)C(C)n2nc(C)c3c(C)n(-c4ccccc4)nc3c2=O)cc1 (centres undefined) | inconclusive: 8.28 µM [inhibitor, partial curve] | –
17 | CSc1nc(O)c(C(c2ccccc2)c2c(O)nc(SC)[nH]c2=O)c(=O)[nH]1 | – | inactive: 6.66%
18 | CCOS(C)(=O)=O | inconclusive: 2.94 µM [inhibitor, single point] | –
19 | Cn1nc(C(=O)OCC(=O)Nc2ccc3ccccc3c2)c2ccccc2c1=O | – | inactive: 29.5%
20 | Cc1cc(NC(=O)C(C)SCC(=O)Nc2ccc(Br)cc2Br)no1 (centres undefined) | – | inactive: -0.99%
21 | COc1ccc(N2CCN(C(=O)C3CCC(Cn4c(=S)[nH]c5ccccc5c4=O)CC3)CC2)cc1 (centres undefined) | – | inactive: 14.6%
22 | CCCOc1ccc(C(=O)C(c2ccccc2)N2CCOCC2)cc1 (centres undefined) | – | inactive: -12.8%
23 | CSc1nc(C)cc(OCC(=O)N/N=C/c2ccccc2O)n1 | inconclusive: 18.5 µM [inhibitor, single point] | –

4 entries already listed, ordered by count of non-hydrogen atoms, smallest number first:
Row | Structure (SMILES) | Potency | activity change, negative = inhibition
18 | CCOS(C)(=O)=O | inconclusive: 2.94 µM [inhibitor, single point] | –
4 | COc1ccc(-n2ncc(Cl)c(Cl)c2=O)cc1 | – | inactive: 33.9%
10 | C=CCNc1nc(C(=O)OCC(=O)NCc2cccc(Cl)c2)cs1 | – | inactive: -1.54%
9 | COc1ccc(S(=O)(=O)Nc2ccc(-n3cnnn3)cc2)cc1[N+](=O)[O-] | inconclusive: 18.5 µM [inhibitor, single point] | –

More structures follow:

Row | Structure (SMILES) | Potency | activity change, negative = inhibition
24 | COc1ccc(-c2cc(C(=O)Nc3ccc(OC)c(OC)c3)no2)cc1 | inconclusive: 13.1 µM [inhibitor, single point] | –
25 | COc1ccccc1NC(=O)Cc1noc(CSc2nnc(C(F)(F)F)n2C)n1 | inconclusive: 18.5 µM [inhibitor, single point] | –
26 | CCCC[C@]12Cc3cc(OC)c(OC)cc3C(O1)C1=C(CC3(CCCCC3)OC1=O)O2 | inconclusive: 1.69 µM [inhibitor, single point] | –
27 | CCOC(=O)C(NC(C)=O)(Nc1ccc(S(=O)(=O)Nc2cc(C)nc(C)n2)cc1)C(F)(F)F (centres undefined) | inconclusive: 11.7 µM [inhibitor, partial curve] | –
28 | Cc1cccc(OCC(=O)Nc2ccc(CN3CCOCC3)cc2)c1C | inconclusive: 18.5 µM [inhibitor, single point] | –
29 | O=C(NCCC1CCCCN1S(=O)(=O)c1ccc(F)cc1)C(=O)Nc1ccccc1F (centres undefined) | inconclusive: 0.147 µM [inhibitor, partial curve, poor fit] | –
30 | COC(=O)c1cn(-c2ccccc2)nc1-c1cccnc1 | active: 7.38 µM | –
31 | N#C/C(=C\c1ccc(OCc2ccc(C(=O)O)cc2)cc1)C(=O)NCc1ccccc1 | – | inactive: -4.72%
32 | CC(CCc1ccccc1)NCC(O)c1cccc([N+](=O)[O-])c1 (centres undefined) | inconclusive: 4.15 µM [inhibitor, single point] | –
33 | CCn1c(SCC(=O)NC2CCCC2)nnc1-c1ccccn1 | – | inactive: 6.16%
34 | CCCCn1c(N)c(N(CCOC)C(=O)c2cccc(S(=O)(=O)N(CC)c3ccccc3)c2)c(=O)[nH]c1=O | inconclusive: 11.7 µM [inhibitor, partial curve, poor fit] | –
35 | COc1cc(/C=C(\NC(C)=O)C(=O)Nc2ccccc2C)ccc1OC(C)=O | inconclusive: 6.57 µM [inhibitor, partial curve] | –
36 | CCOC(=O)c1sc2nc(C)nc(SCC(N)=O)c2c1C | – | inactive: -7.55%
37 | COCCCNC(=O)c1ccc(CS(=O)(=O)Cc2cccc(C)c2)o1 | inconclusive: 0.0294 µM [inhibitor, full curve, poor fit] | –
38 | CCCN1CCN(C(=O)c2ccc3nc(CC)c(CC)nc3c2)CC1 | – | inactive: 444%
39 | Cc1c(NC(=O)NC(=O)c2ccc(F)cc2)c(=O)n(-c2ccccc2)n1C | – | inactive: -26.4%
40 | O=C(CNC(=O)c1ccncc1)N/N=C/c1cccc([N+](=O)[O-])c1 | inconclusive: 18.5 µM [inhibitor, single point] | –
41 | Cc1ccc(S(=O)(=O)N2CCN(C(=O)CNC(=O)c3sc4ccccc4c3Cl)CC2)cc1 | – | inactive: 1.55%
42 | COc1ccc(N(C(=O)CCl)C(C(=O)NCCc2ccccc2)c2cccs2)cc1 (centres undefined) | – | inactive: 103%
43 | COC(=O)C1=C(C)N(Cc2ccccc2)C(=NCCc2ccccn2)N[C@H]1c1cccc(C(F)(F)F)c1 | inconclusive: 0.522 µM [inhibitor, partial curve, poor fit] | –
44 | CCc1nnc(NS(=O)(=O)c2ccc(NC(=S)NC(=O)c3cccnc3)cc2)s1 | inconclusive: 18.5 µM [inhibitor, single point] | –
45 | Cc1ccc(CN2CCN(CC(=O)NCCCN3CCN(c4ccc(F)cc4)CC3)C2=O)cc1 | inconclusive: 18.5 µM [inhibitor, single point] | –
46 | CCOc1cc(NC(=O)c2cccs2)c(OCC)cc1NC(=O)CCC(=O)NCC1CCCO1 (centres undefined) | inconclusive: 18.5 µM [inhibitor, single point] | –

Row | Structure (SMILES) | Potency | activity change, negative = inhibition
47 | Cc1cc(N2CCN(C)CC2)nc2ccc(NC(=O)CCC3CCCC3)cc12 | inconclusive: 18.5 µM [inhibitor, single point] | –
48 | CC(C)n1ncc2c(C(=O)N3CCN(c4ccc(F)cc4)CC3)cc(-c3ccccc3)nc21 | active: 11.7 µM | –
49 | CCC(CC)COC(=O)C1=C(C)NC(=O)NC1c1cc(OC)ccc1OC (centres undefined) | inconclusive: 8.28 µM [inhibitor, partial curve, poor fit] | –
50 | CC(C)(Oc1ccc(Cl)cc1)C(=O)Nc1ccncc1 | inconclusive: 4.15 µM [inhibitor, full curve] | –
51 | Cn1c(=O)c2c(nc(N3CCN(C(=O)c4ccco4)CC3)n2CCSc2ncccn2)n(C)c1=O | inconclusive: 0.657 µM [inhibitor, partial curve] | –
52 | NC(=O)C1CCN(C(=O)COc2ccc3ccccc3c2)CC1 | inconclusive: 16.5 µM [inhibitor, single point] | –
53 | O=C(NN=C1CCCC1)c1sc2ccccc2c1Cl | inconclusive: 2.94 µM [inhibitor, partial curve, poor fit] | –
54 | CC(C)(C)C1CCC(OCC(O)CN2CCN(Cc3ccccc3)CC2)CC1 (centres undefined) | inconclusive: 0.522 µM [inhibitor, full curve, poor fit] | –
55 | C/[N+]([O-])=C\c1ccc([N+](=O)[O-])o1 | inconclusive: 10.4 µM [inhibitor, partial curve] | –
56 | O=C(C1=C[C@@H](C2CC2)C[C@@H](OCc2ccc(CO)cc2)O1)N1CCN(Cc2ccccc2)CC1 | inconclusive: 13.1 µM [inhibitor, single point] | –
57 | Cc1ccc(Nc2nc(CSc3nnc(-c4ccccc4)n3C)cs2)cc1 | inconclusive: 16.5 µM [inhibitor, single point] | –
58 | O=C(Nc1ccon1)Nc1cccc(Cl)c1Cl | – | inactive: 0%
59 | COc1cccc(OC)c1C(=O)Nc1ccc(CN2CCCCC2)cc1 | inconclusive: 18.5 µM [inhibitor, single point] | –
60 | CCOC(=O)c1ccc(NC(=O)c2sc3nc4n(c(=O)c3c2C)CCC4)cc1 | active: 14.7 µM | –
61 | Brc1cccc(CN2CCCCCC2)c1 | – | inactive: -16.5%
62 | c1ccc(Oc2c3ccccc3nc3ccccc23)cc1 | inconclusive: 10.4 µM [inhibitor, partial curve, poor fit] | –
63 | N=c1c2c3c(sc2ncn1CCN1CCOCC1)CCCC3 | inconclusive: 0.0047 µM [inhibitor, full curve, poor fit] | –
64 | COCCN(C(=O)CCc1ccccc1OC)c1nnc(-c2cccnc2)s1 | inconclusive: 0.262 µM [inhibitor, full curve, poor fit] | –
65 | O=C(O)C1CCCN1C(=O)Oc1ccccc1 (centres undefined) | inconclusive: 11.7 µM [inhibitor, single point] | –
66 | CCS(=O)(=O)c1c(S(=O)(=O)CC)c2ccccn2c1C(N)=O | inconclusive: 2.94 µM [inhibitor, full curve, poor fit] | –
67 | O=C(Nc1cc(S(=O)(=O)N2CCOCC2)ccc1N1CCCC1)c1ccc(F)cc1 | inconclusive: 1.31 µM [inhibitor, partial curve, poor fit] | –
68 | CCN1C(=NCCc2c[nH]c3ccccc23)N[C@@H](c2ccccc2)C(C(=O)OC)=C1C | inactive | –
69 | O=C(Nc1ccc(N2CCOCC2)nc1)c1ccc(C(F)(F)F)cc1 | inconclusive: 0.131 µM [inhibitor, full curve, poor fit] | –
